Values from PubChem BioAssay AID652243 (Drosophila RNAi Screening Center, 2013)

Screen: 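Fly genes required for human androgen receptor driven transcription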 (primary screen)
System: Drosophila S2R+ cells
Knock-down reagent: long dsRNA against Drosophila genes
Time to read-out: 72 h (48 h, then 24 h hormone)
Challenge: synthetic androgen R1881 at 10 nM for 24 h
Measurement: 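Firefly light from an androgen-responsive reporter and Renilla control light per well, raw and unnormalised, for each of two replicates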
Reading the numbers: firefly reporter light: higher = more light from androgen-responsive reporter; Renilla control light: higher = more constitutive control signal (cell number, transfection)
Rule for the call: 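Hit when the log firefly-to-Renilla ratio dropped or increased by a fixed fold versus the mean of GFP or LacZ controls across duplicate plates; lowering cut given as 1.5 and as 3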
Calls: active = hit: reporter lowered or raised; inactive = no hit
The deposit covers about 24,000 reagents; this is a random part of those that have a named target and a result. Of all reagents, 246 (1%) got an active call. 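Plates not normalised; calls are printed but the firefly/Renilla ratio behind them is not deposited; fold cut for lowering reported inconsistently.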 Raw values are not corrected between plates. Names joined by + are all predicted targets of the reagent. Reagent sequences are not shown. The record does not give: the amount of reagent.

For DhpD (GeneID 40528) [DRSC12288], how do the results read?
firefly reporter light, replicate 1: 45019; firefly reporter light, replicate 2: 51359; Renilla control light, replicate 1: 3.17e5; Renilla control light, replicate 2: 4.33e5; Call: inactive

What did the screen give for PrBP (GeneID 34196) [DRSC03189]?
firefly reporter light, replicate 1: 1.96e5; firefly reporter light, replicate 2: 1.38e5; Renilla control light, replicate 1: 1.56e6; Renilla control light, replicate 2: 1.60e6; Call: inactive

For PrBP (GeneID 34196) [DRSC25862], what was measured?
firefly reporter light, replicate 1: 2.59e5; firefly reporter light, replicate 2: 3.03e5; Renilla control light, replicate 1: 7.08e5; Renilla control light, replicate 2: 5.45e5; Call: inactive

What is on record for CG17169 (GeneID 3354995) [DRSC20905]?
firefly reporter light, replicate 1: 1.09e5; firefly reporter light, replicate 2: 1.43e5; Renilla control light, replicate 1: 3.67e5; Renilla control light, replicate 2: 3.54e5; Call: inactive

Which result is listed for CG6216 (GeneID 39257) [DRSC10606]?
firefly reporter light, replicate 1: 2.58e5; firefly reporter light, replicate 2: 2.36e5; Renilla control light, replicate 1: 2.84e6; Renilla control light, replicate 2: 2.65e6; Call: inactive

How did the screen score CG6216 (GeneID 39257) [DRSC28352]?
firefly reporter light, replicate 1: 2.84e5; firefly reporter light, replicate 2: 5.36e5; Renilla control light, replicate 1: 1.04e6; Renilla control light, replicate 2: 1.17e6; Call: inactive

How did the screen score Sbds (GeneID 38749) [DRSC10992]?
firefly reporter light, replicate 1: 1.08e6; firefly reporter light, replicate 2: 9.60e5; Renilla control light, replicate 1: 1.18e6; Renilla control light, replicate 2: 1.65e6; Call: inactive

With Prp3 (GeneID 40172) [DRSC10912], what does the deposit list?
firefly reporter light, replicate 1: 2.20e5; firefly reporter light, replicate 2: 1.73e5; Renilla control light, replicate 1: 2.27e6; Renilla control light, replicate 2: 1.96e6; Call: inactive

Which result is listed for CG11113 (GeneID 35659) [DRSC06039]?
firefly reporter light, replicate 1: 3.38e5; firefly reporter light, replicate 2: 2.71e5; Renilla control light, replicate 1: 1.76e6; Renilla control light, replicate 2: 1.57e6; Call: inactive

What is on record for CG34432 (GeneID 5740681) [DRSC38678]?
firefly reporter light, replicate 1: 1.06e6; firefly reporter light, replicate 2: 9.06e5; Renilla control light, replicate 1: 1.77e6; Renilla control light, replicate 2: 2.05e6; Call: inactive

With Cht12 (GeneID 246535) [DRSC03844], what does the deposit list?
firefly reporter light, replicate 1: 1.56e5; firefly reporter light, replicate 2: 1.10e5; Renilla control light, replicate 1: 3.43e5; Renilla control light, replicate 2: 3.57e5; Call: inactive

How did the screen score CG7215 + Prx5 [DRSC16214]?
firefly reporter light, replicate 1: 2.02e5; firefly reporter light, replicate 2: 62529; Renilla control light, replicate 1: 1.69e6; Renilla control light, replicate 2: 1.20e6; Call: inactive

What is on record for CG7215 + Prx5 [DRSC16215]?
firefly reporter light, replicate 1: 25323; firefly reporter light, replicate 2: 44854; Renilla control light, replicate 1: 4.57e5; Renilla control light, replicate 2: 6.19e5; Call: inactive

What did the screen give for tun (GeneID 36743) [DRSC05592]?
firefly reporter light, replicate 1: 2.15e5; firefly reporter light, replicate 2: 2.04e5; Renilla control light, replicate 1: 3.97e5; Renilla control light, replicate 2: 3.31e5; Call: inactive

With tun (GeneID 36743) [DRSC07127], what does the deposit list?
firefly reporter light, replicate 1: 1.04e6; firefly reporter light, replicate 2: 9.57e5; Renilla control light, replicate 1: 2.60e6; Renilla control light, replicate 2: 2.80e6; Call: inactive

With CG11699 (GeneID 32101) [DRSC19419], what was measured?
firefly reporter light, replicate 1: 6.83e5; firefly reporter light, replicate 2: 5.85e5; Renilla control light, replicate 1: 2.74e6; Renilla control light, replicate 2: 2.48e6; Call: inactive

For CG11699 (GeneID 32101) [DRSC27489], how do the results read?
firefly reporter light, replicate 1: 1.58e5; firefly reporter light, replicate 2: 1.97e5; Renilla control light, replicate 1: 3.91e5; Renilla control light, replicate 2: 5.18e5; Call: inactive

How did the screen score porin (GeneID 34500) [DRSC03594]?
firefly reporter light, replicate 1: 7.39e5; firefly reporter light, replicate 2: 8.13e5; Renilla control light, replicate 1: 1.67e6; Renilla control light, replicate 2: 2.13e6; Call: inactive

Which result is listed for porin (GeneID 34500) [DRSC27826]?
firefly reporter light, replicate 1: 5.28e5; firefly reporter light, replicate 2: 4.33e5; Renilla control light, replicate 1: 6.28e5; Renilla control light, replicate 2: 7.56e5; Call: inactive

With SMC3 (GeneID 32627) [DRSC20227], how do the results read?
firefly reporter light, replicate 1: 2.87e5; firefly reporter light, replicate 2: 2.42e5; Renilla control light, replicate 1: 3.23e6; Renilla control light, replicate 2: 2.47e6; Call: inactive

What is on record for Nt5c (GeneID 35984) [DRSC06711]?
firefly reporter light, replicate 1: 8.87e5; firefly reporter light, replicate 2: 9.87e5; Renilla control light, replicate 1: 2.04e6; Renilla control light, replicate 2: 1.87e6; Call: inactive

For Nt5c (GeneID 35984) [DRSC27240], what was measured?
firefly reporter light, replicate 1: 2.43e5; firefly reporter light, replicate 2: 2.86e5; Renilla control light, replicate 1: 5.02e5; Renilla control light, replicate 2: 5.00e5; Call: inactive

With g (GeneID 44819) [DRSC20335], how do the results read?
firefly reporter light, replicate 1: 3.71e5; firefly reporter light, replicate 2: 4.47e5; Renilla control light, replicate 1: 3.91e6; Renilla control light, replicate 2: 4.45e6; Call: inactive

How did the screen score g (GeneID 44819) [DRSC26118]?
firefly reporter light, replicate 1: 4.45e5; firefly reporter light, replicate 2: 3.56e5; Renilla control light, replicate 1: 8.00e5; Renilla control light, replicate 2: 6.88e5; Call: inactive

Which result is listed for phyl (GeneID 36606) [DRSC07663]?
firefly reporter light, replicate 1: 1.14e5; firefly reporter light, replicate 2: 1.33e5; Renilla control light, replicate 1: 2.19e6; Renilla control light, replicate 2: 2.19e6; Call: inactive

For phyl (GeneID 36606) [DRSC24829], what does the deposit list?
firefly reporter light, replicate 1: 4.96e5; firefly reporter light, replicate 2: 3.93e5; Renilla control light, replicate 1: 5.15e5; Renilla control light, replicate 2: 3.77e5; Call: inactive

With Zfrp8 (GeneID 45021) [DRSC04352], what does the deposit list?
firefly reporter light, replicate 1: 1.62e5; firefly reporter light, replicate 2: 2.49e5; Renilla control light, replicate 1: 1.50e6; Renilla control light, replicate 2: 1.70e6; Call: inactive

Targets listed so far whose target name starts with G or g:
g (GeneID 44819) [DRSC20335] → firefly reporter light, replicate 1: 3.71e5; firefly reporter light, replicate 2: 4.47e5; Renilla control light, replicate 1: 3.91e6; Renilla control light, replicate 2: 4.45e6; Call: inactive
g (GeneID 44819) [DRSC26118] → firefly reporter light, replicate 1: 4.45e5; firefly reporter light, replicate 2: 3.56e5; Renilla control light, replicate 1: 8.00e5; Renilla control light, replicate 2: 6.88e5; Call: inactive
